Source: patent US20020132296

Target: myelin basic protein

B1: Glutathionine S-transferase (GST)/novel human kinase fusion (protein)
chain: MAHSPVQSGLPGMQNLKADPEELFTKLEKIGKGSFGEVFKGIDNRTQKVVAIKIIDLEEAEDEIEDIQQEITVLSQCDSPYVTKYYGSYLKDTKLWIIMEYLGGGSALDLLEPGPLDETQIATILREILKGLDYLHSEKKIHRDIKAANVLLSEHGEVKLADFGVAGQLTDTQIKRNTFVGTPFWMAPEVIKQSAYDSKADIWSLGITAIELARGEPPHSELHPMKVLFLIPKNNPPTLEGNYSKPLKEFVEACLNKEPSFRPTAKELLKHKFILRNAKKTSYLTELIDRYKRWKAEQSHDDSSSEDSDAETDGQASGGSDSGDWIFTIREKDPKNLENGALQPSDLDRNKMKDIPKRPFSQCLSTIISPLFAELKEKSQACGGNLGSIEELRGAIYLAEEACPGISDTMVAQLVQRLQRYSLSGGGTSSH
- phosphorylation of MBP in an in vitro kinase assay with [gamma-32P] ATP, SDS gel and autoradiograph (FIG. 6): Phosphorylation of MBP (1 8-20kDa) and autophosphorylation of the fusion protein kinase (76.9kDa) are evident in lane 1
